From patent US20040152670A1, “Novel aminoindanes” (priority 1999, published 2004)
For at least one compound, name, drawing or mass did not settle the structure.

Protein sequences, listed by entry. Tags and fused reporters are not part of them. Residues count along the entry.
UniProt P23385, 19-1199: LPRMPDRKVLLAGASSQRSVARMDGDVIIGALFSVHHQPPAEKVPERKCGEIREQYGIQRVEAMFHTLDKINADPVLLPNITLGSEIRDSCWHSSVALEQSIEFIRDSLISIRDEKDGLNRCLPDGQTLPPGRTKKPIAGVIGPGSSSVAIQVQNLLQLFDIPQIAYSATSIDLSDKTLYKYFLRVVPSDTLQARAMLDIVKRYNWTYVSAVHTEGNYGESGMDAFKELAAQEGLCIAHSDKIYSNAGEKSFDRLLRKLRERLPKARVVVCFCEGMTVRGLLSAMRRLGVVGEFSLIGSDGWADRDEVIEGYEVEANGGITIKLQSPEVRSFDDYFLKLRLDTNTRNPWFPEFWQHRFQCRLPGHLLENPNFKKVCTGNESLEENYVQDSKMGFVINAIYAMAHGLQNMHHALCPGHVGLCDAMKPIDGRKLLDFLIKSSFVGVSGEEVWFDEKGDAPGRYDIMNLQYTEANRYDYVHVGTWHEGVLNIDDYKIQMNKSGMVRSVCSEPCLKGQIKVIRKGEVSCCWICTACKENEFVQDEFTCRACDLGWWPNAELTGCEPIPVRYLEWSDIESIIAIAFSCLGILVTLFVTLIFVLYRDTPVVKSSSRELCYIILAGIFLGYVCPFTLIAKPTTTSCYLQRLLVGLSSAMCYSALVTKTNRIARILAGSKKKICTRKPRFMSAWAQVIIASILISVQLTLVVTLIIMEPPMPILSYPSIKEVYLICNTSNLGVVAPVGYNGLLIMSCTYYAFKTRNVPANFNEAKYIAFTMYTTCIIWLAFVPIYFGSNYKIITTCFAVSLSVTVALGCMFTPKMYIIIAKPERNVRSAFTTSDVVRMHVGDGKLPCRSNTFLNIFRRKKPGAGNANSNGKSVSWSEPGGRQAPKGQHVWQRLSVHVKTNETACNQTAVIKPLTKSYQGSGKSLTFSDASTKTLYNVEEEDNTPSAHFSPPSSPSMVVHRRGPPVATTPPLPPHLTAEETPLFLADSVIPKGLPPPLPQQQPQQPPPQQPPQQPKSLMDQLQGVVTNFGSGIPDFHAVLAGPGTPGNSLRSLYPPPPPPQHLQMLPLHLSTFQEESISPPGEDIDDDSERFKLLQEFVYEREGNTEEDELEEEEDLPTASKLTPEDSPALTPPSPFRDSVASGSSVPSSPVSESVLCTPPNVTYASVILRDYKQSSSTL

Columns and labels:
[1] = test system: Group I metabotropic glutamate receptors (mGluRs); experiment: Phosphatidylinositol assay in neonatal rat tissue slices (inositol phosphate accumulation); type: cell-based, Sprague Dawley rat; conditions: Yes/No; for Group I Agonist: increase in intracellular free inositol phosphate accumulation; for Group I Antagonist: inhibits the inositol phosphate accumulation induced by ACPD
Procedure: Briefly, cross-chopped slices are prepared from neonatal Sprague Dawley rat tissue (age: p7-p14). The slices are pre-labelled with [3H] myo-inositol. Following pre-labelling, the slices are incubated with the test drugs and standard (known Group I agonists i.e. ACPD) for a period of 45 minutes. The incubation is terminated by the addition of chloroform/methanol/HCl (100:200:2). The resulting mixture is separated into two phases by the addition of chloroform and distilled water. The aqueous fraction is applied to ion exchange columns, and inositol phosphates are eluted using 800 mM Ammonium Formate/100 mM Formic Acid. The eluent is then analyzed using liquid scintillation counting. The amount of inositol phosphate accumulation is expressed as a percentage of that induced by ACPD. Group I metabotropic glutamate receptors (mGluRs) are positively coupled on inositol phosphate metabolism. Agonists at these receptors lead to an increase in intracellular free inositol phosphates, while antagonists inhibit the increase in intracellular free inositol phosphate induced by standard agonists (i.e. ACPD). Cross-chopped slices were prepared from neonatal Sprague Dawley rat tissue (age: p7-p14). The slices were pre-labelled with [^3H] myo-inositol. Following pre-labelling, the slices were incubated with the test compounds and standard (known Group I agonists i.e. ACPD) for a period of 45 minutes. The incubation was terminated by the addition of chloroform/methanol/HCl (100:200:2). The resulting mixture was separated into two phases by the addition of chloroform and distilled water. The aqueous fraction was applied to ion exchange columns, and inositol phosphates were eluted using 800 mM Ammonium Formate/100 mM Formic Acid. The eluent was then analyzed using liquid scintillation counting. The amount of inositol phosphate accumulation was expressed as a percentage of that induced by ACPD. If the drugs cause an increase in intracellular free inositol phosphate accumulation, they are considered to be Group I agonists. […]

[2] = test system: Group II/III metabotropic glutamate receptors (mGluRs); experiment: Cyclic AMP assay in rat cortical slices (forskolin-induced cyclic AMP accumulation); type: cell-based, Sprague Dawley rat; conditions: Yes/No; for Group II/III Agonist: inhibits forskolin-induced cyclic AMP accumulation; for Group II/III Antagonist: inhibits the glutamate-caused decrease in forskolin-induced cyclic AMP accumulation
Procedure: The assay of cyclic AMP formation can be performed as described previously (Tovey el al., Clinica Chimica Acta, 56, 221-234, 1974). The assay can be modelled on the cyclic AMP assay kit available from Amersham, which in turn, is based on the assay created by Tovey el al. Briefly, samples are prepared from Sprague Dawley rat (225-250 g) cortical slices. Slices are incubated with the drug, and then challenged with forskolin to induce cyclic AMP release. Following termination of the reaction by boiling, the slices are homogenized and centrifuged. Samples of supernatant are then incubated for 2-3 hours with a known quantity of [^3H]cAMP and a binding protein. When the incubation is complete, the bound cyclic AMP is separated from the free cyclic AMP by centrifugation with charcoal. The resulting supernatant (containing free cyclic AMP) is then analyzed by liquid scintillation counting. The amount of unbound cyclic AMP can be calculated from a standard curve previously determined with various samples of free cyclic AMP. Group II/III metabotropic glutamate receptors (mGluRs) are negatively coupled to adenylate cyclase, and agonists of these receptors lead to a decrease in intracellular cyclic AMP accumulation. The assay has been modeled on the cyclic AMP assay kit available from Amersham. This kit, in turn, is based on the assay created by Tovey et al. (1974). Briefly, the samples were prepared from Sprague Dawley rat (225-250 g) cortical slices. Slices were incubated with the test compound (drug), and then challenged with forskolin to induce cyclic AMP release. Following termination of the reaction by boiling, the slices were homogenized and centrifuged. Samples of supernatant were then incubated for 2-3 hours with a known quantity of [^3H]cAMP and a binding protein. When the incubation was complete, the bound cyclic AMP was separated from the free cyclic AMP by centrifugation with charcoal. The resulting supernatant (containing free cyclic AMP) was then analyzed by liquid scintillation counting. The amount of unbound cyclic AMP was calculated from a standard curve previously determined with various samples of free cyclic AMP. If the drugs tested inhibit forskolin-induced cyclic AMP accumulation, they are considered to be Group II/III agonists. Conversely, if they inhibit the decrease in forskolin-induced cyclic AMP accumulation caused by glutamate, they are considered to be Group II/III antagonists.

mGluR1α receptor = molecular target: T1, mGluR1α receptor (Rattus norvegicus, UniProt P23385); experiment: PI hydrolysis antagonist assay in Chinese hamster ovary cell lines expressing cloned mGluR1α; type: cell-based; conditions: CHO cells expressing cloned mGluR1α; compound at 5 mM; 10 µM (L)-glutamic acid; FIG. 1
T1 construct: expressed in transfected cells; host or cells: Chinese hamster ovary (CHO) cells
Procedure: The Chinese hamster ovary cell lines expressing mGluR1α, mGlu R2 and mGluR4αreceptors have been described previously (Amarori and Nakanishi, Neuron 8, 757-765, 1992; Tanabe et al., Neuron 8, 169-179, 1992, and J. Neurochem. 63, 2038-2047, 1993). They are maintained at 37° C. in a humidified 5% CO2 incubator in Dubecco's Modified Eagle Medium (DMEM) containing a reduced concentration of(S)-glutamine (2 mM) and are supplemented with 1% proline, penicillin (100 U/mL), streptomycin ([…]) and 10% dialyzed fetal calf serum (all GIBCO, Paisley). Two days before assay 1.8×10^6 cells are evenly distributed into the wells of 24 well plates.
Phosphatidylinositol (PI) hydrolysis can be measured as described previously (Hayashi et al., Nature 366, 687-690,1992, and J. Neuroscience 14, 3370-3377, 1994). Briefly, the cells are labeled with [^3H]inositol (2 μCi/mL) 24 h prior to the assay. For agonist assays, the cells are incubated with test compound dissolved in phosphate-buffered saline (PBS)-LiC] for 20 min, and agonist activity is determined from the level of ^3H-labeled mono-, bis- and tris-inositol phosphates generated, as measured following ion-exchange chromatography, compared with the level generated in the absence of the test compound. […] The antagonist activity is then determined as the inhibitory effect of the (S)-Glu mediated response. […]

| Compound | Group I Agonist [1] | Group I Antagonist [1] | Group II/III Agonist [2] | Group II/III Antagonist [2] | antagonist activity: block of the increase in PI hydrolysis by (L)-glutamic acid at the mGluR1α receptor (mGluR1α receptor) |
| --- | --- | --- | --- | --- | --- |
| N[C@]1(C(=O)O)C[C@@H](CC(=O)O)c2ccccc21 (relative stereo) [Compound 13, Trans-1-amino-1-carboxyindane-3-acetic acid] | No | Yes | Yes | No |  |
| N[C@]1(C(=O)O)c2ccccc2C[C@H]1CC(=O)O (relative stereo) [Compound 9, Trans-1-amino-1-carboxyindane-2-acetic acid] | No | Yes | No | Yes |  |
| N[C@@]1(C(=O)O)C[C@H](C(=O)O)c2ccccc21 (stereo in doubt) [Compound 4b, Cis-1-aminoindane-1,3-dicarboxylic acid] | No | No | Yes | No | effectively blocked |
